Among the data in PMC9224301 are binding values, retold here.

These are yes or no findings as the source states them, for the method shown. In cells and extracts the contact can be indirect. These calls come from enrichment with a bait or labelling near it, and not all partners need be listed. Where a sequence is shown, tags or fusion partners need not be part of it.

In this assay the target is T1, Chl1-5xFlag (S. pombe) (UniProt O14147).
T1 sequence: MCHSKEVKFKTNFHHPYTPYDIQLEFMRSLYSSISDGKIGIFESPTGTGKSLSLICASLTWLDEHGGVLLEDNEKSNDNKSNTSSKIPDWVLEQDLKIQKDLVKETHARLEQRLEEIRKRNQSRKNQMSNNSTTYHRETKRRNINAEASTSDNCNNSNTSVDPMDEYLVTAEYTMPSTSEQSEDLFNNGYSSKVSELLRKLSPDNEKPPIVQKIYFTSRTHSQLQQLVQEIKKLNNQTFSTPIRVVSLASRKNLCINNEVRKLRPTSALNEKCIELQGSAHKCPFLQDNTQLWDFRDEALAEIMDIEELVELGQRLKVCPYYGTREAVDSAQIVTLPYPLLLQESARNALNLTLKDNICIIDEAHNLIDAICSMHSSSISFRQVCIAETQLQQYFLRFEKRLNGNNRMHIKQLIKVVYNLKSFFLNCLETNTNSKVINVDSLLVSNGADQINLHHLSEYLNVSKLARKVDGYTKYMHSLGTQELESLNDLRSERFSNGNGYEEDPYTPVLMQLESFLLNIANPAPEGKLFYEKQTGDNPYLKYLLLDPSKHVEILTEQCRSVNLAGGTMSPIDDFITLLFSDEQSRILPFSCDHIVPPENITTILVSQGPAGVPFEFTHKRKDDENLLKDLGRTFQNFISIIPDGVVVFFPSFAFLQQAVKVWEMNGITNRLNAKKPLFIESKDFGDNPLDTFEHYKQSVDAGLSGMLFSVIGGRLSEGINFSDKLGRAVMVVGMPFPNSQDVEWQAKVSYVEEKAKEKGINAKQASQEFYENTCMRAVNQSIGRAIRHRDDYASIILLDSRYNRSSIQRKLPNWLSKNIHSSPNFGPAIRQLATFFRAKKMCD
Kind of assay: affinity purification with mass spectrometry; Chl1-Flag complex affinity purified from whole-cell extracts by Flag resin in 1x HC buffer (250 mM KCl), eluted with 3x Flag peptide, LC-MS/MS; untagged strain as comparison.

B1: Rpc37 subunit of RNA polymerase III (protein, UniProt O74883 1-242)
chain: MSFSEDQAMEEAKLRNDETEEQDPVVRTYPVFFSPGLRNNLLLNQFPLRPKNRTYSDANGEAPIDVRVKPKTGWMEVDVPIPTTKYYNEDKAMKYGNGKKPIQTQTLSGRLQKPRTNLMVGLIRDGQFHIVPLRGLTQLRPSMKHVNEYTQKLKAAAGPSNSSSGTSTPRGPIRAVQVTAKQNTEAPKVSTTHIVRATEEEEWVELDCRPERESESILKQLECPIEHQPNECAAVDEDYSFI
As for B1, the binding result is given as “binds”.
